Experimental data: patent US5547956A, “Pharmaceutical composition and the method for treating drug addicts' withdrawal syndromes and detoxifying addicts by the same” (priority 1991, dated 1996)
Like-named read-outs stand apart in the source and are kept apart here.

Tests used:
Morphine-dependent Mice = settings: morphine 100 mg/kg sc twice a day 8 days, nalorphine 50 mg/kg
Description: In the first 4 days, administration was given once per 6 hours, four times a day. From day 5 through day 7, administration was given once every 8 hours, three times a day. On day 5 and day 8 of treatment, respectively, subcutaneous injections of nalorphine (50 mg/kg) were made to […].

mice [1] = settings: nalorphine 50 mg/kg; 2 days: morphine initial 2.5 mg/kg (total 157.5), lappaconitine initial 3.5 mg/kg (total 35); 10 mice tested
Description: In another case, male mice weighing 18-22 g were divided into four groups (10 for every group). Two groups of mice were injected subcutaneously with lappaconitine hydrobromide 7 times within 2 days. The initial dosage was 3.5 mg/kg. Then, additional doses of 0.5 mg/kg and 1.0 mg/kg were given for every injection in each group, respectively. […] The initial dosage was 2.5 mg/kg and an escalating dose schedule of 5, 10, 20, 30, 40, 50 mg/kg was applied. The fourth group of mice was used as control group and was given physiological saline. Two hours after the last injection, all the mice of the above four groups were injected with 50 mg/kg nalorphine through the intraperitoneal cavity. The number of jumps within 10 minutes in each group of mice were recorded.

mice [2] = settings: allyl-dromaran 10 mg/kg ip; 20 days: morphine 80 mg/kg (total 1600, 10 mice), lappaconitine 8.0 mg/kg (total 160, 18 mice)
Description: Male mice weighing 18~22 g were used for the test and divided into 3 groups (10 for every group). […] The second group of mice was given a subcutaneous injection of lappaconitine hydrobromide (8 mg/kg) for 20 days. The third group was a control group and was given physiological saline. 6 hours after being given the last dose, all the mice were given an intraperitoneal injection of 10 mg/kg allyl dromaran, and then were placed in a cone cylinder cage (diameter=30 cm, height=35 cm). The number of jumps for each mouse in 60 minutes was recorded.

CN1CC[C@]23c4c5ccc(O)c4O[C@H]2[C@@H](O)C=C[C@H]3[C@H]1C5.Cl [Morphine, morphine hydrochloride, reference compound]
reactions after nalorphine in morphine-treated mice (Morphine-dependent Mice): frequent movement, attacking reactions and jumping reactions | number of jumping mice (mice [1]): 7 | number of jumping mice (mice [2]): 9
